According to publication PMC2852384:
These are yes or no findings as the source states them, for the method shown. Binding seen in cells or lysates may run through a third protein. Here binding means that the protein was enriched with, or labelled near, the bait; the list need not be complete.

Amino acid sequences for entries named in this document (tags omitted).
UniProt Q96DX5: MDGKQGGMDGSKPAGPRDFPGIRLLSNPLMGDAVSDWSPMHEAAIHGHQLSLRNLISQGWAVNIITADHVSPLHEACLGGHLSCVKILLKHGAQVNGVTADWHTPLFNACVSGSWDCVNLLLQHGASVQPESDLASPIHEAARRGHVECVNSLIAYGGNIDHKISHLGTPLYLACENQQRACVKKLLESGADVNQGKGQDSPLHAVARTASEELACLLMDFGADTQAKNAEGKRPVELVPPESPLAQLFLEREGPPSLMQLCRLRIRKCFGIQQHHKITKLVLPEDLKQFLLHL

Molecular target: Myc-tagged human ankyrin repeat and SOCS box protein 9 (ASB9) (human) (UniProt Q96DX5)
Assay: affinity purification with mass spectrometry; anti-Myc immunoprecipitates from lysates of HEK293 cells stably expressing null, Myc-tagged ASB9 or ASB9ΔSOCS; SDS-PAGE, Coomassie G-250, in-gel trypsin digestion of bands, ESI-TOF MS/MS

binding: binds
Substance: ubiquitous mitochondrial creatine kinase (uMtCK), endogenous (from UniProt P12532 40-417) (enzyme)
